# Some of the results follow.
# B1: Erv46-EDTA (Saccharomyces cerevisiae), P39727 (protein)
# chain: MKFLVNVALVFMVVYISYIYAAAPEHHHHHHDYDIPTTENLYFQGAMDSVVTRPQLVVDRDRHAKLELNMDVTFPSMPCDLVNLDIMDDSGEMQLDILDAGFTMSRLNSEGRPVGDATELHVGGNGDGTAPVNNDPNYCGPCYGAKDQSQNENLAQEEKVCCQDCDAVRSAYLEAGWAFFDGKNIEQCEREGYVSKINEHLNEGCRIKGSAQINRIQGNLHFAPGKPYQNAYGHFHDTSLYDKTSNLNFNHIINHLSFGKPIQSHSKLLGNDKRHGGAVVATSPLDGRQVFPDRNTHFHQFSYFAKIVPTRYEYLDNVVIETAQFSATFHSRPLAGGRDKDHPNTLHVRGGIPGMFVFFEMSPLKVINKEQ
# Experiments:
# Assay in all cases: glycan array binding signal (z-score within array); higher = stronger binding
# Settings in all cases: glycan notation: IUPAC condensed, linker removed
# [1] = molecular target: Fuc(a1-3)[Gal3S(b1-4)]GlcNAc
# Procedure, shortened: (§1)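 Columns mapping to the same glycan were averaged after glycan names were converted to IUPAC-condensed notation. The data come from 3228 arrays in the Consortium for Functional Glycomics database, limited to those with an available protein sequence. Binding is reported as a within-array Z-score averaged across arrays of one protein sequence and across linkers.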
# [2] = molecular target: Fuc(a1-3)[Gal3S(b1-4)]GlcNAc6S
# Procedure, shortened: as §1
# [3] = molecular target: Fuc(a1-3)[GalNAc(b1-4)]GlcNAc
# Procedure, shortened: as §1
# [4] = molecular target: Fuc(a1-3)[GalNAc(b1-4)]GlcNAc6S
# Procedure, shortened: as §1
# Fuc(a1-4)GlcNAc = molecular target: Fuc(a1-4)GlcNAc
# Procedure, shortened: as §1
# Fuc(b1-3)GlcNAc = molecular target: Fuc(b1-3)GlcNAc
# Procedure, shortened: as §1
# Gal(a1-2)Gal = molecular target: Gal(a1-2)Gal
# Procedure, shortened: as §1
# Gal(a1-3)Gal = molecular target: Gal(a1-3)Gal
# Procedure, shortened: as §1
# Gal(a1-3)Gal(b1-3)GlcNAc = molecular target: Gal(a1-3)Gal(b1-3)GlcNAc
# Procedure, shortened: as §1
# [5] = molecular target: Gal(a1-3)Gal(b1-3)GlcNAc(b1-2)Man
# Procedure, shortened: as §1
# [6] = molecular target: Gal(a1-3)Gal(b1-3)GlcNAc(b1-2)Man(a1-3)[Gal(a1-3)Gal(b1-3)GlcNAc(b1-2)Man(a1-6)]Man(b1-4)GlcNAc(b1-4)GlcNAc
# Procedure, shortened: as §1
# [7] = molecular target: Gal(a1-3)Gal(b1-3)GlcNAc(b1-3)GalNAc
# Procedure, shortened: as §1
# [8] = molecular target: Gal(a1-3)Gal(b1-3)GlcNAc(b1-6)GalNAc
# Procedure, shortened: as §1
# [9] = molecular target: Gal(a1-3)Gal(b1-3)[Fuc(a1-4)]GlcNAc(b1-2)Man(a1-3)[Gal(a1-3)Gal(b1-3)[Fuc(a1-4)]GlcNAc(b1-2)Man(a1-6)]Man(b1-4)GlcNAc(b1-4)GlcNAc
# Procedure, shortened: as §1
# Gal(a1-3)Gal(b1-4)Glc = molecular target: Gal(a1-3)Gal(b1-4)Glc
# Procedure, shortened: as §1
# Gal(a1-3)Gal(b1-4)GlcNAc = molecular target: Gal(a1-3)Gal(b1-4)GlcNAc
# Procedure, shortened: as §1
# [10] = molecular target: Gal(a1-3)Gal(b1-4)GlcNAc(b1-2)Man
# Procedure, shortened: as §1
# [11] = molecular target: Gal(a1-3)Gal(b1-4)GlcNAc(b1-2)Man(a1-3)[Gal(a1-3)Gal(b1-4)GlcNAc(b1-2)Man(a1-6)]Man(b1-4)GlcNAc(b1-4)GlcNAc
# Procedure, shortened: as §1
# [12] = molecular target: Gal(a1-3)Gal(b1-4)GlcNAc(b1-3)GalNAc
# Procedure, shortened: as §1
# [13] = molecular target: Gal(a1-3)Gal(b1-4)GlcNAc(b1-6)GalNAc
# Procedure, shortened: as §1
# [14] = molecular target: Gal(a1-3)Gal(b1-4)[Fuc(a1-3)]GlcNAc
# Procedure, shortened: as §1
# [15] = molecular target: Gal(a1-3)Gal(b1-4)[Fuc(a1-3)]GlcNAc(b1-2)Man(a1-3)[Gal(a1-3)Gal(b1-4)[Fuc(a1-3)]GlcNAc(b1-2)Man(a1-6)]Man(b1-4)GlcNAc(b1-4)GlcNAc
# Procedure, shortened: as §1
# Gal(a1-3)GalNAc = molecular target: Gal(a1-3)GalNAc
# Procedure, shortened: as §1
# [16] = molecular target: Gal(a1-3)[Gal(a1-4)]Gal(b1-4)GlcNAc
# Procedure, shortened: as §1
# [17] = molecular target: Gal(a1-4)Gal(b1-3)GlcNAc(b1-2)Man(a1-3)[Gal(a1-4)Gal(b1-3)GlcNAc(b1-2)Man(a1-6)]Man(b1-4)GlcNAc(b1-4)GlcNAc
# Procedure, shortened: as §1
# Gal(a1-4)Gal(b1-4)Glc = molecular target: Gal(a1-4)Gal(b1-4)Glc
# Procedure, shortened: as §1
# Gal(a1-4)Gal(b1-4)GlcNAc = molecular target: Gal(a1-4)Gal(b1-4)GlcNAc
# Procedure, shortened: as §1
# [18] = molecular target: Gal(a1-4)Gal(b1-4)GlcNAc(b1-2)Man(a1-3)[Gal(a1-4)Gal(b1-4)GlcNAc(b1-2)Man(a1-6)]Man(b1-4)GlcNAc(b1-4)GlcNAc
# Procedure, shortened: as §1
# [19] = molecular target: Gal(a1-4)Gal(b1-4)GlcNAc(b1-3)Gal(b1-4)Glc
# Procedure, shortened: as §1
# Gal(a1-4)GlcNAc = molecular target: Gal(a1-4)GlcNAc
# Procedure, shortened: as §1
# Gal(a1-6)Glc = molecular target: Gal(a1-6)Glc
# Procedure, shortened: as §1
# Gal(b1-2)Gal = molecular target: Gal(b1-2)Gal
# Procedure, shortened: as §1
# Gal(b1-3)Gal = molecular target: Gal(b1-3)Gal
# Procedure, shortened: as §1
# Gal(b1-3)Gal(b1-4)GlcNAc = molecular target: Gal(b1-3)Gal(b1-4)GlcNAc
# Procedure, shortened: as §1
# Gal(b1-3)GalNAc = molecular target: Gal(b1-3)GalNAc
# Procedure, shortened: as §1
# [20] = molecular target: Gal(b1-3)GalNAc(a1-3)[Fuc(a1-2)]Gal(b1-4)Glc
# Procedure, shortened: as §1
# [21] = molecular target: Gal(b1-3)GalNAc(a1-3)[Fuc(a1-2)]Gal(b1-4)GlcNAc
# Procedure, shortened: as §1
binder,measurement,setting,value
B1,glycan array binding signal (z-score),[1],-0.897
same,glycan array binding signal (z-score),[2],0.691
same,glycan array binding signal (z-score),[3],-0.059
same,glycan array binding signal (z-score),[4],-0.982
same,glycan array binding signal (z-score),Fuc(a1-4)GlcNAc,-0.577
same,glycan array binding signal (z-score),Fuc(b1-3)GlcNAc,-0.253
same,glycan array binding signal (z-score),Gal(a1-2)Gal,0.198
same,glycan array binding signal (z-score),Gal(a1-3)Gal,-0.004
same,glycan array binding signal (z-score),Gal(a1-3)Gal(b1-3)GlcNAc,-0.986
same,glycan array binding signal (z-score),[5],-0.516
same,glycan array binding signal (z-score),[6],0.432
same,glycan array binding signal (z-score),[7],0.217
same,glycan array binding signal (z-score),[8],0.196
same,glycan array binding signal (z-score),[9],0.286
same,glycan array binding signal (z-score),Gal(a1-3)Gal(b1-4)Glc,-0.076
same,glycan array binding signal (z-score),Gal(a1-3)Gal(b1-4)GlcNAc,0.068
same,glycan array binding signal (z-score),[10],0.805
same,glycan array binding signal (z-score),[11],0.337
same,glycan array binding signal (z-score),[12],-0.319
same,glycan array binding signal (z-score),[13],0.246
same,glycan array binding signal (z-score),[14],-0.327
same,glycan array binding signal (z-score),[15],2.74
same,glycan array binding signal (z-score),Gal(a1-3)GalNAc,-0.543
same,glycan array binding signal (z-score),[16],-0.095
same,glycan array binding signal (z-score),[17],-0.683
same,glycan array binding signal (z-score),Gal(a1-4)Gal(b1-4)Glc,0.54
same,glycan array binding signal (z-score),Gal(a1-4)Gal(b1-4)GlcNAc,0.087
same,glycan array binding signal (z-score),[18],0.047
same,glycan array binding signal (z-score),[19],-0.465
same,glycan array binding signal (z-score),Gal(a1-4)GlcNAc,0.382
same,glycan array binding signal (z-score),Gal(a1-6)Glc,0.66
same,glycan array binding signal (z-score),Gal(b1-2)Gal,0.267
same,glycan array binding signal (z-score),Gal(b1-3)Gal,-0.198
same,glycan array binding signal (z-score),Gal(b1-3)Gal(b1-4)GlcNAc,0.071
same,glycan array binding signal (z-score),Gal(b1-3)GalNAc,0.046
same,glycan array binding signal (z-score),[20],-0.47
same,glycan array binding signal (z-score),[21],-0.147

# A portion from the list above, for reference:
binder,measurement,setting,value
B1,glycan array binding signal (z-score),[13],0.246
same,glycan array binding signal (z-score),[14],-0.327
same,glycan array binding signal (z-score),[15],2.74
same,glycan array binding signal (z-score),Gal(a1-3)GalNAc,-0.543
same,glycan array binding signal (z-score),[16],-0.095
same,glycan array binding signal (z-score),[17],-0.683
same,glycan array binding signal (z-score),Gal(a1-4)Gal(b1-4)Glc,0.54
same,glycan array binding signal (z-score),Gal(a1-4)Gal(b1-4)GlcNAc,0.087
same,glycan array binding signal (z-score),[18],0.047
